Among the data in PMC11445578 are binding values, retold here.

Sequences of proteins named here, by UniProt entry; tags and fusion partners are left off.
UniProt Q9Y5K6: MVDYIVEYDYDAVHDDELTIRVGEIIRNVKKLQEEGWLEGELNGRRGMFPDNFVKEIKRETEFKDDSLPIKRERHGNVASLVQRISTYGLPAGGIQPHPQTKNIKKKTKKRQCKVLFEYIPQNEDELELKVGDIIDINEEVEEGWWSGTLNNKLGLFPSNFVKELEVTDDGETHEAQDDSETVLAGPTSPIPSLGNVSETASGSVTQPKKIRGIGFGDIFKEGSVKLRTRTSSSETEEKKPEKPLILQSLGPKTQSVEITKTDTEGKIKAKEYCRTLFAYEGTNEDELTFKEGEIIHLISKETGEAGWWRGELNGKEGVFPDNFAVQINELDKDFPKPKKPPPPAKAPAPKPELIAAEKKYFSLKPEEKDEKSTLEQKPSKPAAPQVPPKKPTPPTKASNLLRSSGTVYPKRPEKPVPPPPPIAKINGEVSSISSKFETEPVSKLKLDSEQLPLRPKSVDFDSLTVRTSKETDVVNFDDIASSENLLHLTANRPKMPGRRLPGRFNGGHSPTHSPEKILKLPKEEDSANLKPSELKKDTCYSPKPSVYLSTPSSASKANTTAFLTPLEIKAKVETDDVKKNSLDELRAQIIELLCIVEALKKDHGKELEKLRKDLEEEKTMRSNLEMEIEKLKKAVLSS
UniProt Q9C035: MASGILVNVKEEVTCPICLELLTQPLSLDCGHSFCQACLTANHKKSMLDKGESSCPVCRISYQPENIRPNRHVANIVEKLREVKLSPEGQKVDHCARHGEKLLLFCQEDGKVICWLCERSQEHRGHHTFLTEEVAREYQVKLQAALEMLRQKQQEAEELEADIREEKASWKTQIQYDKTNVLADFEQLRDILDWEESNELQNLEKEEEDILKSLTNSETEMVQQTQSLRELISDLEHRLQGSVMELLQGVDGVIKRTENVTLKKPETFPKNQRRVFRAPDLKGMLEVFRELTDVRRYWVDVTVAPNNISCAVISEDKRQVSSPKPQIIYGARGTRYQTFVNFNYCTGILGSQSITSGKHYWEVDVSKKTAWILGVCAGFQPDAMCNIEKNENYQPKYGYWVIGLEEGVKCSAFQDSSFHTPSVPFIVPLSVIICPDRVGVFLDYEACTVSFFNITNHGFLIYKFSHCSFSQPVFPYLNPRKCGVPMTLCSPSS

Results are given in words; binding and its absence hold for the method and conditions named. In cells and extracts the contact can be indirect. Some results given as binding are weak or reduced against the parent protein; the word gives no strength.

The target of assay [1] is CD2AP fused with the C-terminal fragment of Venus (human) (UniProt Q9Y5K6). Kind of assay: split reporter; Venus BiFC in HEK293T cells transfected with TRIM5-VN and/or CD2AP-VC; fluorescence observed by microscopy.
Assay [2] has as its target CD2AP co-expressed in HEK 293T cells (human) (UniProt Q9Y5K6). Kind of assay: co-IP; CD2AP and TRIM5 co-expressed in HEK 293T cells; lysates incubated with primary antibodies and protein A/G MagBeads at 4 °C overnight, western blot.
The target of assay [3] is CD2-associated protein (CD2AP), endogenous (human (endogenous in U87MG and U251)) (UniProt Q9Y5K6). The assay can be described thus: co-IP; endogenous proteins in U87MG and U251 cell lysates; primary antibodies and protein A/G MagBeads at 4 °C overnight, immunoblotted with anti-CD2AP and anti-TRIM5 antibodies. (In western blotting, separated proteins are transferred to a membrane and probed.)

Take “TRIM5 fused with the N-terminal fragment of Venus (from UniProt Q9C035 1-493)”: the binding entry in assay [1] is given as “binds”.
In the case of “TRIM5 co-expressed in HEK 293T cells (from UniProt Q9C035 1-493)”, in assay [2], the binding result is listed as “binds”.
Turning to “TRIM5, endogenous (from UniProt Q9C035 1-493)”, in assay [3], the binding result is on record as “binds”.
